The values below come from the supplement of paper PMC9744312.

SMILES strings stand for the structures. Where a name gives a salt, the structure may show the parent alone. Some of the results follow. This is a noisy data set. Bounds are passed on as bounds.

The test system of this test is Peyronie's disease tunica albuginea primary fibroblasts. The test is described as follows: inhibition of TGF-beta1-induced alpha-SMA expression (myofibroblast transformation), relative to TGF-beta1-only and untreated controls; higher = stronger inhibition of myofibroblast transformation. As to conditions: 10 µM; TGF-beta1 10 ng/mL; 72 h.
For the molecule `CCCNCC(O)COc1ccccc1C(=O)CCc1ccccc1` (stereo not drawn) [Propafenone HCl], the “inhibition of TGF-beta1-induced alpha-SMA expression” value (shortened to “inhibition”) is 29.8%.

Turning to `NC(=O)C(c1ccccc1)(c1ccccc1)[C@@H]1CCN(CCc2ccc3c(c2)CCO3)C1` [Darifenacin HBr], the “inhibition” value was found to be 1.62%.

On to `COc1ccccc1OCC(O)CN1CCN(CC(=O)Nc2c(C)cccc2C)CC1` (stereo not drawn) [Ranolazine], for which the “inhibition” value came out at 10.4%. The figure for `COc1ccccc1OCC(O)CN1CCN(CC(=O)Nc2c(C)cccc2C)CC1` (stereo not drawn) [Ranolazine 2HCl] is 26.6%; for `CNS(=O)(=O)C[C@H]1CC[C@H](N(C)c2[nH]cnc3nccc2-3)CC1` it is -146%.

`COc1cc([C@@H]2c3cc4c(cc3[C@@H](O[C@@H]3O[C@@H]5CO[C@@H](C)O[C@H]5[C@H](O)[C@H]3O)[C@H]3COC(=O)[C@H]23)OCO4)cc(OC)c1O` [Etoposide]: the “inhibition” value is -33.1%. With `COc1ccc(C2CNC(=O)C2)cc1OC1CCCC1` (stereo not drawn) [Rolipram] the figure was 53.3%; with `Cc1c(O)c(=O)ccn1C` [Deferiprone], 9.95%. For the molecule `O=S(=O)(O)c1cc(O)ccc1O` [Ethamsylate], the “inhibition” value turned out to be 5.64%. `c1ccc([C@H]2CN3CCSC3=N2)cc1` [Levamisole hydrochloride]: the “inhibition” value amounted to 45.8%. Consider `CCC(=O)O[C@]1(C(=O)CCl)[C@@H](C)C[C@H]2[C@@H]3CCC4=CC(=O)C=C[C@]4(C)[C@@]3(F)[C@@H](O)C[C@@]21C` [Clobetasol propionate], for which the “inhibition” value is 37.9%. With `O=C1OCCN1/N=C/c1ccc([N+](=O)[O-])o1` [Furazolidone] the figure was -4.53%; with `CCOC(=O)[C@H](CCc1ccccc1)N[C@H]1CS[C@H](c2cccs2)CN(CC(=O)O)C1=O` [Temocapril HCl], 10.6%; with `CCCCC(F)(F)[C@@]1(O)CC[C@H]2[C@@H](CC(=O)[C@@H]2CCCCCCC(=O)O)O1` [Lubiprostone], 20%.

Turning to `CN(C)N(C)C(=O)[C@@]1(Cc2ccccc2)CCCN(C(=O)[C@@H](Cc2c[nH]c3ccccc23)NC(=O)C(C)(C)N)C1` [Anamorelin], the “inhibition” value was 23.6%.

Take `CN1CCN(CCOc2cc(OC3CCOCC3)c3c(Nc4c(Cl)ccc5c4OCO5)ncnc3c2)CC1` [Saracatinib (AZD0530)]: the “inhibition” value was > 100%. Take `O=C(NCC(O)CO)c1c(I)c(C(=O)NCC(O)CO)c(I)c(N(CCO)C(=O)CO)c1I` (stereo not drawn) [Ioversol]: the “inhibition” value amounted to 10.6%.

Turning to `CO/N=C(\C(=O)N[C@@H]1C(=O)N2C(C(=O)O)=C(COC(N)=O)CS[C@H]12)c1ccco1` [Cefuroxime sodium], the “inhibition” value was 11.6%.

Turning to `Nc1ccc(S(=O)(=O)Nc2ccnn2-c2ccccc2)cc1` [Sulfaphenazole], the “inhibition” value was -4.07%. In the case of `CNC(=O)c1cnn(-c2nc(N)c3ncn([C@@H]4O[C@H](CO)[C@@H](O)[C@H]4O)c3n2)c1` [Regadenoson], the “inhibition” value amounted to 20.3%. Turning to `CCC(=O)c1c(O)cc(O)cc1O` [Flopropione], the “inhibition” value worked out at 24.1%. The figure for `N#Cc1ccnc(N2C(=O)CC[C@H]2C(=O)N(c2cncc(F)c2)[C@H](C(=O)NC2CC(F)(F)C2)c2ccccc2Cl)c1` [Ivosidenib (AG-120)] is 26.3%; for `CC1Cc2ccccc2N1NC(=O)c1ccc(Cl)c(S(N)(=O)=O)c1` (stereo not drawn) [Indapamide] it is 2.76%. With `CO/N=C(\C(=O)N[C@@H]1C(=O)N2C(C(=O)O)=C(Cn3ccc(=N)n3CCO)CS[C@H]12)c1csc(N)n1` [Cefoselis Sulfate] the figure was 3.03%; with `C[C@H](CCC(=O)O)[C@H]1CC[C@H]2[C@@H]3CC[C@@H]4C[C@H](O)CC[C@]4(C)[C@H]3C[C@H](O)[C@]12C` [Deoxycholic acid], 59.6%; with `Nc1ccc2cc3ccc(N)cc3nc2c1` [Proflavine Hemisulfate], > 100%. With `O=C([O-])[O-].[Na+].[Na+]` [Sodium carbonate] the figure was 4.01%.

As for `CC(=O)N1C[C@H](O)C[C@H]1C(=O)O` [Oxaceprol], the “inhibition” value is -11.3%. The figure for `CO[C@@]1(NC(=O)CSC[C@@H](N)C(=O)O)C(=O)N2C(C(=O)O)=C(CSc3nnnn3C)CS[C@@H]21` [Cefminox Sodium] is -4.35%. The figure for `CCCCCCCCCCCCCCCC(=O)O[C@@H]1[C@@H](O)[C@@H](O)[C@@H]([C@H](NC(=O)[C@@H]2C[C@@H](CCC)CN2C)[C@H](C)Cl)O[C@@H]1SC` [Clindamycin palmitate HCl] is 24.1%. The figure for `N#Cc1cc(-c2n[nH]c(-c3ccncc3)n2)ccn1` [Topiroxostat] is 3.65%; for `Cc1c(F)cc(C(=O)NC2CC2)cc1-c1ccc(C(=O)NCC(C)(C)C)cn1` it is 24.8%.

For the molecule `CC[C@H]1OC(=O)[C@H](C)[C@@H](O[C@H]2C[C@@](C)(OC)[C@@H](O)[C@H](C)O2)[C@H](C)[C@@H](O[C@@H]2O[C@H](C)C[C@H](N(C)C)[C@H]2O)[C@](C)(O)C[C@@H](C)[C@@H]2N[C@@H](COCCOC)O[C@H]([C@H]2C)[C@]1(C)O` [Dirithromycin], the “inhibition” value was -12.8%. The figure for `O=C1CC2(CCCC2)CC(=O)N1CCCCN1CCN(c2ncccn2)CC1` [Buspirone HCl] is 16.6%; for `C[C@H](O)C(=O)Nc1c(I)c(C(=O)NC(CO)CO)c(I)c(C(=O)NC(CO)CO)c1I` [Iopamidol] it is -16.8%. The figure for `OC[C@H]1O[C@H](O[C@H]2[C@H](O)[C@@H](O)C(O)O[C@@H]2CO)[C@H](O)[C@@H](O)[C@@H]1O` (mixture of isomers) [Maltose] is 11.1%; for `COC(=O)N(C)c1c(N)nc(-c2nn(Cc3ccccc3F)c3ncccc23)nc1N` [Riociguat (BAY 63-2521)] it is 4.61%; for `CC[C@H](C)[C@@H]1NC(=O)[C@H](CCCNC(=N)N)NC(=O)[C@H](CC(=O)O)NC(=O)[C@H](CCSC)NC(=O)[C@H](CCCNC(=N)N)NC(=O)CNC(=O)CNC(=O)[C@H](Cc2ccccc2)NC(=O)[C@@H](NC(=O)[C@H](CO)NC(=O)[C@H](CO)NC(=O)[C@H](CCCNC(=N)N)NC(=O)[C@H](CCCNC(=N)N)NC(=O)[C@H](CC(C)C)NC(=O)[C@@H](N)CO)CSSC[C@@H](C(=O)N[C@@H](CC(N)=O)C(=O)N[C@@H](CO)C(=O)N[C@@H](Cc2ccccc2)C(=O)N[C@@H](CCCNC(=N)N)C(=O)N[C@@H](Cc2ccc(O)cc2)C(=O)O)NC(=O)CNC(=O)[C@H](CC(C)C)NC(=O)CNC(=O)[C@H](CO)NC(=O)[C@H](CCC(N)=O)NC(=O)[C@H](C)NC(=O)CNC1=O` [Carperitide Acetate] it is 15.2%.
